The target in this test is NOT box-truncated mutant of CNOT3 (exogenous, detected with Flag antibody) (human). As to the kind of experiment: proximity ligation; PLA on MOLM13 lines overexpressing CNOT3-FL, NOT box truncated CNOT3 or empty vector, Flag antibody to detect exogenous CNOT3 and antibodies against EEF1E and EEF1D.

Results are given in words; binding and its absence hold for the method and conditions named. Binding seen in cells or lysates may run through a third protein.

B1: EEF1E, the auxiliary component of the multi-synthetase complex (endogenous) (protein, UniProt O43324 1-174)
chain: MAAAAELSLLEKSLGLSKGNKYSAQGERQIPVLQTNNGPSLTGLTTIAAHLVKQANKEYLLGSTAEEKAIVQQWLEYRVTQVDGHSSKNDIHTLLKDLNSYLEDKVYLTGYNFTLADILLYYGLHRFIVDLTVQEKEKYLNVSRWFCHIQHYPGIRQHLSSVVFIKNRLYTNSH
On to B1, for which the binding entry is “no binding”.
